Measurements as given in PubChem BioAssay AID1671190 (National Center for Advancing Translational Sciences (NCATS), 2021).
Out of some 580,000 compounds screened, about 6,100 (1.1%) were called active. The shares of active, inactive and inconclusive entries below differ from those in the screen. Calls come from the whole dose curve; as a rule, active = well fitted inhibition curve with a large enough effect; inconclusive = small, poorly fitted or top-dose-only effect, or another doubt; inactive = no such curve, though single readings can be large or run the other way. Where the call is inconclusive, the potency comes from a doubtful curve fit.

Protein sequences, listed by entry. Tags and fused reporters are not part of them. Lines headed by an entry give the natural chain unless they say otherwise; changes in a name come on top.
UniProt P18054: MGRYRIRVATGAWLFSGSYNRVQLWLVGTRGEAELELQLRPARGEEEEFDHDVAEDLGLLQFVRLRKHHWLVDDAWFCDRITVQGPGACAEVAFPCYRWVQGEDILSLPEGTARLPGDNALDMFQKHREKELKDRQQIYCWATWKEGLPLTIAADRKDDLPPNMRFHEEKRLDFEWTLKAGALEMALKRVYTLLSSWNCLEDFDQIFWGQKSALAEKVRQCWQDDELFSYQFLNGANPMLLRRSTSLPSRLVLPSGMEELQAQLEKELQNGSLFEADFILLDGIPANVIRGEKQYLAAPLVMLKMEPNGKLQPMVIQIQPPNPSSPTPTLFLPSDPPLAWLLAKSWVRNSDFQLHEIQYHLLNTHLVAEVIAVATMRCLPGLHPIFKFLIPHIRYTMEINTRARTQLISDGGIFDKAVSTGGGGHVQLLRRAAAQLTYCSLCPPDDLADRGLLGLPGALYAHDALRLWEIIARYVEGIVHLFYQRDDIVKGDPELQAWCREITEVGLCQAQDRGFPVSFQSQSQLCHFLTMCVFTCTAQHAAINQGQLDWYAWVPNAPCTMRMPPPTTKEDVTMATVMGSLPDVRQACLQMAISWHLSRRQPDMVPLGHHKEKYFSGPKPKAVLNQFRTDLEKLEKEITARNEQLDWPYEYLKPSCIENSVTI

biological target: Polyunsaturated fatty acid lipoxygenase ALOX12 (Homo sapiens) (UniProt P18054); assay: Primary qHTS assay for inhibitors of human arachidonate 12S-lipoxygenase (ALOX12): Round 2; conditions: purified 12hLO, xylenol orange hydroperoxide absorbance; activity change, negative = inhibition: at 108 µM (top of the series) unless noted
Procedure, shortened: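 Purified human 12hLO (150 nM final) in 25 mM Hepes, 0.01% Triton X-100, pH 7.0 was preincubated 15 min at room temperature with compound. Then 40 uM arachidonic acid was added, 30 min. Hydroperoxide was read by Fe-XO absorbance ratio 573/405 nm.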
% is set by controls: 0 for no effect and ±100 for the full control effect; potency is the fitted concentration of half-maximal effect.

Row | Compound | activity change, negative = inhibition | Potency
1 | COCCn1c(C)cc(C(=O)CSc2nc3ccccc3c(=O)[nH]2)c1C | inactive: -23.4% | –
2 | COc1ccc(CCNC(=O)Cc2c(C)c3ccc(OC(C)=O)c(OC(C)=O)c3oc2=O)cc1 | – | inconclusive: 1 µM [inhibitor, full curve, poor fit]
3 | COc1ccc(/C=C(\C#N)C(=O)OC2CCOC2=O)cc1 (stereo not drawn) | – | inconclusive: 7.08 µM [inhibitor, partial curve, poor fit]
4 | CC(=O)N1CCc2c(sc3c2c(=O)n(CCc2ccccc2)c(=O)n3Cc2ccccc2C)C1 | – | inconclusive: 126 µM [inhibitor, partial curve, poor fit]
5 | O=C(COc1ccc(/C=N/NC(=O)c2ccncc2)cc1)Nc1cccc([N+](=O)[O-])c1 | inactive: -14.6% | –
6 | COc1ccc(NC(=O)CSc2nc(-c3cccc(C)c3)[nH]c2-c2ccccc2)cc1OC | inactive: -4.47% | –
7 | CCOC(=O)C1CCN(C(=O)CNC(=O)c2nn(-c3ccc(OC)c(Cl)c3)c(=O)c3ccccc23)CC1 | – | inconclusive: 112 µM [inhibitor, single point]
8 | O=[N+]([O-])c1ccc(N=Nc2c(Cl)cc(O)cc2Cl)cc1 | – | inconclusive: 50.1 µM [inhibitor, partial curve, poor fit]
9 | Cc1oc(-c2ccccc2)cc1C(=O)NCc1ccncc1 | – | inconclusive: 25.1 µM [inhibitor, full curve, poor fit]
10 | CN(Cc1ccc(Cl)cc1Cl)C(=O)CCNC(=O)c1ccco1 | – | inconclusive: 50.1 µM [inhibitor, partial curve, poor fit]
11 | Cc1nn(Cc2ccc(C(=O)NN)cc2)c(C)c1Cl | inactive: 153% | –
12 | O=C(Nc1ccc(Cl)cc1)N1CCC(c2nnc3n2C(C(=O)N2CCOCC2)CC3)CC1 (stereo not drawn) | inactive: 4.84% [at 6.33 µM] | –
13 | Cc1occc1C(=O)N1CCN(c2ccccc2)CC1 | inactive: -12.4% | –
14 | CC1(C)CC(=O)C2=C(C1)NC1=C(C(=O)c3ccccc31)C2c1ccc(C(F)(F)F)cc1 (stereo not drawn) | – | inconclusive: 35.5 µM [inhibitor, partial curve, poor fit]
15 | O=C(CCc1nc2ccccc2c(=O)[nH]1)NCCN1C(=O)S/C(=C\c2ccc(Cl)cc2Cl)C1=O | – | inconclusive: 79.4 µM [inhibitor, partial curve, poor fit]
16 | O=C(Nc1ccc(S(=O)(=O)O)cc1)c1ccc2c(c1)S(=O)(=O)c1ccccc1C2=O | – | inconclusive: 6.31 µM [inhibitor, full curve, poor fit]
17 | COc1cc(N=c2ssnc2Cl)cc(OC)c1OC | – | inconclusive: 2.51 µM [inhibitor, full curve, poor fit]
18 | Cc1nn2c(C)c(C(=O)NC(C)(C)C)cnc2c1-c1ccc(F)cc1 | – | inconclusive: 112 µM [inhibitor, partial curve, poor fit]
19 | Cc1cccc(C)c1NC(=O)Cn1c(=O)n(-c2ccccc2)c(=O)c2c1cc(C)n2C | – | inconclusive: 56.2 µM [inhibitor, single point]
20 | COC(=O)C1=C(C)N(Cc2ccc(Br)cc2)C(=S)NC1c1cccc(OC)c1 (stereo not drawn) | – | inconclusive: 44.7 µM [inhibitor, partial curve, poor fit]
21 | CC(C)CC(NC(N)=O)C(=O)Nc1ccc2c(c1)OCO2 (stereo not drawn) | inactive: -2.76% | –
22 | Nc1nc(C(=O)N2CCOCC2)nn1S(=O)(=O)c1ccccc1 | – | inconclusive: 89.1 µM [inhibitor, single point]
23 | CC(C)=NNC(N)=S | – | inconclusive: 0.316 µM [inhibitor, full curve, poor fit]

Some of the entries above, reformatted:
COc1ccc(/C=C(\C#N)C(=O)OC2CCOC2=O)cc1 (stereo not drawn)
  Potency: inconclusive: 7.08 µM [inhibitor, partial curve, poor fit]
CCOC(=O)C1CCN(C(=O)CNC(=O)c2nn(-c3ccc(OC)c(Cl)c3)c(=O)c3ccccc23)CC1
  Potency: inconclusive: 112 µM [inhibitor, single point]
Cc1oc(-c2ccccc2)cc1C(=O)NCc1ccncc1
  Potency: inconclusive: 25.1 µM [inhibitor, full curve, poor fit]
O=C(Nc1ccc(Cl)cc1)N1CCC(c2nnc3n2C(C(=O)N2CCOCC2)CC3)CC1 (stereo not drawn)
  activity change, negative = inhibition: inactive: 4.84% [at 6.33 µM]

Following part:

Row | Compound | activity change, negative = inhibition | Potency
24 | Cc1cnc(C(=O)Oc2ccc(C(C)(C)C)cc2C)cn1 | – | inconclusive: 56.2 µM [inhibitor, partial curve, poor fit]
25 | COc1ccc(C(=O)CC(=O)c2ccccc2O)cc1OC | – | inconclusive: 126 µM [inhibitor, partial curve, poor fit]
26 | COc1ccc(C2Cn3cnc(C(=O)N4CCC(C(=O)NC(C)C)CC4)c3CO2)cc1 (stereo not drawn) | inactive: -0.895% | –
27 | CCOC(=O)c1c(-c2ccc(C)cc2)csc1NC(=O)CCN1CC(C)OC(C)C1 (stereo not drawn) | – | inconclusive: 35.5 µM [inhibitor, partial curve]
28 | O=C(c1cccc(S(=O)(=O)N2CCCCCC2)c1)N1CCN(c2ccccc2)CC1 | inactive: 1.38% | –
29 | Cc1cccc(-n2c(C)cc(/C=C3/C(=N)N4C(c5ccccc5)=CSC4=NC3=O)c2C)c1 | inactive: -14.2% | –
30 | Cn1nc(C(C)(C)C)c([N+](=O)[O-])c1C(=O)NCCO | inactive: 13.3% | –
31 | C/C(=N\NC(=S)Nc1ccccc1)c1ccc(F)cc1 | – | inconclusive: 10 µM [inhibitor, full curve, poor fit]
32 | CCCCNC(=O)c1cc2n(n1)CCCN(Cc1ccc(C)cc1)C2=O | inactive: -15.6% | –
33 | CCOc1ccc(S(=O)(=O)N2CCOCC2)cc1NC(=O)CCOc1ccc(C(C)(C)C)cc1 | – | inconclusive: 56.2 µM [inhibitor, partial curve, poor fit]
34 | COc1ccc(NC(=O)Cn2c(=O)n(Cc3ccccc3)c(=O)c3sc4ccccc4c32)cc1 | inactive: -8.69% | –
35 | OC(c1ccccc1)(c1ccccc1)C1CCN(CCCOc2ccncc2)CC1 | – | inconclusive: 50.1 µM [inhibitor, partial curve]
36 | Cn1nc(-c2ccccc2F)c2cc(C(=O)Nc3ccc4c(c3)OCCO4)sc21 | inactive: -18.1% | –
37 | Cc1nnc(NC2=NCCC2)s1 | – | inconclusive: 20 µM [inhibitor, partial curve, poor fit]
38 | Clc1ccc(CN2CCCCCCC2)cc1 | – | inconclusive: 3.55 µM [inhibitor, full curve, poor fit]
39 | Cc1cc(C)cc(C(=O)NCc2ccco2)c1 | inactive: 13.4% | –
40 | O=C(NCCc1noc(C2CC2)n1)C1CCC1 | inactive: -5.4% | –
41 | CN1C(=O)[C@@H]2C[C@@H](O)CN2C2(CN(Cc3cccc(F)c3)C2)C1=O | – | inconclusive: 7.94 µM [inhibitor, full curve]
42 | N#C/C(=C\c1ccco1)C(=O)c1ccccc1 | – | inconclusive: 0.501 µM [inhibitor, full curve, poor fit]
43 | Cc1ccccc1NC(=O)CSc1ncnc2ccccc12 | inactive: -6.83% | –
44 | CCOc1ccc(-c2nc(N)ncc2Oc2cccc(OC)c2)c(O)c1 | – | inconclusive: 17.8 µM [inhibitor, full curve, poor fit]
45 | O=C(Cn1cccc1-c1nc(-c2ccc(F)cc2)no1)Nc1ccc2c(c1)OCO2 | inactive: 13% | –
46 | CC(C)Cn1c(N)c(C(=O)NCc2cccs2)c2nc3ccccc3nc21 | – | inconclusive: 2.24 µM [inhibitor, full curve, poor fit]

Row | Compound | activity change, negative = inhibition | Potency
47 | CCN1c2cc(C(=O)Nc3ccc(N(C)C)cc3)ccc2C(=O)N2CCCCCC21 (stereo not drawn) | – | inconclusive: 70.8 µM [inhibitor, partial curve]
48 | Cc1ccc(NC(=O)C2CCN(C(=O)c3cccs3)CC2)c(C)c1 | – | inconclusive: 79.4 µM [inhibitor, partial curve, poor fit]
49 | Cc1occc1C(=O)NCc1ccc2c(c1)OCO2 | – | inconclusive: 2 µM [inhibitor, full curve, poor fit]
50 | Cc1ccc(S(=O)(=O)c2c(O)cc(C)c(NS(=O)(=O)c3ccc(Cl)cc3)c2C)cc1 | – | inconclusive: 56.2 µM [inhibitor, partial curve, poor fit]
51 | Cn1c(SCC(=O)NCc2ccccc2)nc2ccccc21 | inactive: -22.8% | –
52 | Cc1sc2ncnc(N/N=C/c3ccccc3O)c2c1C | – | inconclusive: 11.2 µM [inhibitor, full curve]
53 | Cc1cccc(C)c1NC(=O)Cc1c(C)nc2nc(-c3cccs3)nn2c1C | – | inconclusive: 39.8 µM [inhibitor, partial curve, poor fit]
54 | COc1ccc(OC2CN(Cc3ccccc3)C2)cc1 | inactive: 11.3% [at 12.5 µM] | –
55 | COc1cc(C)c(/C=C/C(C)=C/C=C/C(C)=C/C(=O)O)c(C)c1C | – | inconclusive: 44.7 µM [inhibitor, partial curve, poor fit]
56 | O=C(C1CC1)N1CCC(c2nc(-c3ccc(S(=O)(=O)NCC4CCCO4)cc3)no2)CC1 (stereo not drawn) | inactive: 1.12% | –
57 | CC(C)c1noc(CNC(=O)C2CCC(=O)N(CCN3CCOCC3)C2)n1 (stereo not drawn) | inactive: -22.1% | –
58 | COCCCNC(=O)C(=O)Nc1cc2c3c(c1)CCC(=O)N3CCC2 | inactive: 10.1% | –
59 | O=C(NC1CCN(Cc2ccc(Cl)cc2)CC1)c1ccc2nc(Cl)ccc2c1 | – | inconclusive: 20 µM [inhibitor, full curve, poor fit]
60 | CCCCS(=O)(=O)NC(=O)C1(C)CCN1C(=O)C/C=C/c1ccccc1 (stereo not drawn) | – | inconclusive: 31.6 µM [inhibitor, single point]
61 | O=C(CSc1ncnc2nc(N3CCOCC3)sc12)Nc1cc(C(F)(F)F)ccc1Cl | inactive: -23.2% | –
62 | CCCCCCCCCCCCCCC[C@@H](O)[C@@H](N)CO | – | inconclusive: 56.2 µM [inhibitor, single point]
63 | COc1cc(C(=O)Nc2ccc(NC(=O)c3cccc(Cl)c3)nc2)cc(OC)c1OC | inactive: -15.5% | –
64 | COc1ccc(C(CC(=O)O)c2cc(OC)c(OC)c(OC)c2)cc1OC (stereo not drawn) | – | inconclusive: 56.2 µM [inhibitor, partial curve, poor fit]
65 | CC1(C)Cc2c(oc3ncn4ncnc4c23)CO1 | – | inconclusive: 50.1 µM [inhibitor, single point]
66 | O=C(Nc1ccc(N2CCCCC2)c(S(=O)(=O)Nc2ccccc2Cl)c1)c1cccnc1 | – | inconclusive: 63.1 µM [inhibitor, partial curve, poor fit]
67 | Cc1ccc(C(=O)O)cc1NC(=S)NC(=O)c1ccc([N+](=O)[O-])cc1Cl | – | inconclusive: 25.1 µM [inhibitor, partial curve]
68 | O=C(c1cc(F)ccc1F)N1CCC(n2cc(-c3nc(-c4ccccc4)no3)nn2)CC1 | – | inconclusive: 63.1 µM [inhibitor, partial curve, poor fit]
